Reference: article PMC7355497, “Effect of Rumex Acetosa Extract, a Herbal Drug, on the Absorption of Fexofenadine” (Pharmaceutics, 2020)
Counter-ions that a name gives are not always drawn. Like-named read-outs stand apart in the source and are kept apart here.

Legend:
[1] = rats, n = 6, median (range)
in vivo = settings: male, Sprague-Dawley, rat, plasma, po; for AUC(0-t): AUC0-24 h of fexofenadine; for AUC(0-t) / Cmax: rats, n = 6, mean ± SD; for Cmax: Cmax of fexofenadine
[2] = fexofenadine 10 mg/kg oral with R. acetosa extract 2 g/kg oral
[3] = 10 mg/kg, fexofenadine 10 mg/kg oral with R. acetosa extract 2 g/kg oral
[4] = 10 mg/kg, fexofenadine 10 mg/kg oral with emodin 11 mg/kg oral
[5] = 10 mg/kg, fexofenadine 10 mg/kg oral with vehicle (control)

- Tmax of fexofenadine [1, 2]: 0.75 (0.25–8) h
- Tmax of fexofenadine ([1]; fexofenadine 10 mg/kg oral with emodin 11 mg/kg oral): 0.75 (0.5–1) h
- Tmax (in vivo; 10 mg/kg): 45 min
- AUC(0-t) (in vivo; [3]): 132 ± 50.5 ng·h/mL
- AUC(0-t) (in vivo; [4]): 412 ± 189 ng·h/mL
- AUC(0-t) (in vivo; [5]): 222 ± 85.5 ng·h/mL
- Cmax (in vivo; [3]): 32.9 ± 28.5 ng/mL
- Cmax (in vivo; [4]): 53.4 ± 33.9 ng/mL
- Cmax (in vivo; [5]): 36.4 ± 22.8 ng/mL
- AUC(0-t) (in vivo; [2]): 132 ± 50.3 ng·h/mL
Compound: CC(C)(C(=O)O)c1ccc(C(O)CCCN2CCC(C(O)(c3ccccc3)c3ccccc3)CC2)cc1 (stereo not shown) [fexofenadine, Fexofenadine hydrochloride]
